At least one structure is not confirmed: it was looked up by name or label, or the drawing left a doubt.
Tested on: CD33 CAR T cells
Assay: Inhibitor treatment during ex vivo culture
Type: cell-based, human
Conditions: for total CD8^+ CAR T cells / T cell expansion: 4 days of inhibitor treatment
Method: Inhibitor treatment during ex vivo culture: CD33 CAR or control transduced T cells were labeled with CellTrace Violet (ThermoFisher) 5 days after their initial activation. […] Cells were analyzed 4 days later by flow cytometry.
Day 1: Separated PBMCs from apheresis ring of donor. Enriched human T cells by Pan T cell negative selection kit. Activate human T cells by anti-human CD3 and anti-human CD28 (1 ug/ml) coated plates overnight.
Day2: Transduced human T cells with anti-CD33 CAR gamma-retrovirus or MSCV control by retronectin coated non-tissue culture plate.
Day3: Resuspend the cells and plate them in the IL-2 RPMI medium in the tissue culture plate.
100U/ml IL-2 was added to cultures every 2 days. Cells were analyzed 4 days later by flow Cytometry.

[1] = Example 4: 4 days, different concentrations
[2] = Example 4: 4 days, different concentrations, vs untreated CD33 CAR T cells
[3] = 4 days, LY294002 10 μM, IC87114 10 μM, API-2 1 μM, rapamycin 50 nM, PP242 1 μM, DCA 10 mM, vs untreated CD33 CAR T cells

Compound	CD8^+ TEM or TEFF cell percent [1]	percent of CD8^+ TN and TCM cells [2]	total CD8^+ CAR T cells / T cell expansion	percent of CD8^+ TN and TCM cells [3]	number of CD8^+ TEFF cells (4 days, rapamycin 50 nM, PP242 1 μM)	percentage of CCR7^+ cells among undivided CD8^+ cells (4 days)	CD8^+ TEM or TEFF cell numbers (4 days, 10 μM)	number of CD8^+ TN and TCM cells (4 days, same concentrations, vs untreated CD33 CAR T cells)	number of CD8^+ TN and TCM cells (Example 4: 4 days)	T cell differentiation, one dose vs two doses treatment (Example 5: 4 days, different concentration)
COC[C@H]1OC(=O)c2coc3c2[C@@]1(C)C1=C(C3=O)[C@@H]2CCC(=O)[C@@]2(C)C[C@H]1OC(C)=O [Wortmannin]	significant decrease	increased significantly								
CO[C@H]1C[C@@H]2CC[C@@H](C)[C@@](O)(O2)C(=O)C(=O)N2CCCC[C@H]2C(=O)O[C@H]([C@H](C)C[C@@H]2CC[C@@H](O)[C@H](OC)C2)CC(=O)[C@H](C)/C=C(\C)[C@@H](O)[C@@H](OC)C(=O)[C@H](C)C[C@H](C)/C=C/C=C/C=C/1C [rapamycin]			substantial decrease	no detectable effect	decreased					
O=c1cc(N2CCOCC2)oc2c(-c3ccccc3)cccc12 [LY294002]	significant decrease	increased significantly	no reduction in total cell numbers	increased significantly		did not alter	did not significantly alter	increased significantly	increased significantly	not very big difference
